# Experimental data: article PMC8370389
# No constants are given. Whether binding was seen depends on the method and setting.
# Target: Scavenger receptor SCAV-5 (C. elegans)
# Assay: two-hybrid; split-ubiquitin membrane yeast two-hybrid (MYTH); SCAV-5 in pMetYCgate, TIR-1 in pNubXgate32-HA; yeast strain AP4; dilutions 10^-1 to 10^-3 dropped onto SD-Trp-Leu-His-Ade medium; 30°C for 3 days
binder,measurement,value
"TIR-1 (protein, UniProt Q86DA5 1-981) MLPNRKPPRPSPSFQSLNNNNQRFPLRRSLKIAQAHSLPTVPSEDAKDDDLITPELSTDFDFREIQHRYLMALQNEQDGETTSTDDAFFELDDDDDLSSPSVPGSPVDPPSISVPLPPKSAPPCPTQPAPLTNGDLYPTILSNGTPIPNGRITPALSTVSVSLIHEARLQQSLSTPCNGSEEEMHNGQVRKESEYRRFKSEGSTAGASLPAAEKTHMDELSPVDQRSTSGTARFLIQQDSVVNPSTKMSNTEQVAMMHTLKTKLSKYQAMMDKAFEEIAKVEDANIIEGCTIVRKLMRKVWNTPKVSADLANALCDYLRDRDYFDKLIKMFISPNTAACDQVRMECGKVLEECTSSANLEYIVNKSYTKKIMIVAMKLNKTPDQQRLSLSLIGNLFKHSNAVSLSLIETDVIDHIILTFKRAPECPDILRHAALALANILLYTCFEGKKKIIQKKIPEWLFFLASQADDVTRYYACIAVCTIVSVKEFEPLVRKSDTMKLVEPFLQVHDPATFARDYHKYAQGNTKEWLERLLPMLQPSRRREARSVAAFHFTLEATIKKEQNKLDVFQEIGAIQALKEVASSPDEVAAKFASEALTVIGEEVPYKLAQQVPGWTCADVQYWVKKIGFEEYVEKFAKQMVDGDLLLQLTENDLKHDVGMISGLHRKRFLRELQTLKVAADYSSVDESNLDNFLMGLSPELSVYTYQMLTNGVNRSLLSSLTDEMMQNACGITNPIHRLKLTQAFETAKHPDDVEVAMLSKQIDVFISYRRSTGNQLASLIKVLLQLRGYRVFIDVDKLYAGKFDSSLLKNIQAAKHFILVLTPNSLDRLLNDDNCEDWVHKELKCAFEHQKNIIPIFDTAFEFPTKEDQIPNDIRMITKYNGVKWVHDYQDACMAKVVRFITGELNRTTPTTKEMPSISRKTTQQRWQTTNTVSRTGPSRSIGGPRMEPPTPTFTPTGSQERATSTRRKIQPSASTTSDRN",binding,no binding
